Melanoma cell counts after drug treatment

Data from the primary screen of doi:10.1371/journal.pone.0140310, rounded.

Compounds and concentrations:
pioglitazone, 2 µM: CCc1ccc(CCOc2ccc(CC3SC(=O)NC3=O)cc2)nc1 (centres unmarked)
OSU-03012, 1 µM: NCC(=O)Nc1ccc(-n2nc(C(F)(F)F)cc2-c2ccc3c(ccc4ccccc43)c2)cc1
Src-I1, 2 µM: COc1cc2ncnc(Nc3ccc(Oc4ccccc4)cc3)c2cc1OC
PF-04217903, 1 µM: OCCn1cc(-c2cnc3nnn(Cc4ccc5ncccc5c4)c3n2)cn1
tanespimycin, 0.002 µM: C=CCNC1=C2C[C@@H](C)C[C@H](OC)[C@H](O)[C@@H](C)/C=C(\C)[C@H](OC(N)=O)[C@@H](OC)/C=C\C=C(/C)C(=O)NC(=CC1=O)C2=O
indole-3-carbinol, 0.8 µM: OCc1c[nH]c2ccccc12
CP-690550, 1 µM: C[C@@H]1CCN(C(=O)CC#N)C[C@@H]1N(C)c1ncnc2[nH]ccc12
docetaxel, 0.0001 µM: CC(=O)O[C@@]12CO[C@@H]1C[C@H](O)[C@@]1(C)C(=O)[C@H](O)C3=C(C)[C@@H](OC(=O)[C@H](O)[C@@H](NC(=O)OC(C)(C)C)c4ccccc4)C[C@@](O)([C@@H](OC(=O)c4ccccc4)[C@H]21)C3(C)C
enzastaurin, 0.8 µM: Cn1cc(C2=C(c3cn(C4CCN(Cc5ccccn5)CC4)c4ccccc34)C(=O)NC2=O)c2ccccc21
fingolimod, 2 µM: CCCCCCCCc1ccc(CCC(N)(CO)CO)cc1
L-779450, 0.2 µM: Oc1cc(-c2nc(-c3ccccc3)[nH]c2-c2ccncc2)ccc1Cl
PF-562271, 0.08 µM: CN(c1ncccc1CNc1nc(Nc2ccc3c(c2)CC(=O)N3)ncc1C(F)(F)F)S(C)(=O)=O

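The test systems are human melanoma cell lines, treated with a pair of drugs for 72 h and then stained and imaged. Values are the number of DAPI-stained nuclei as a percentage of the DMSO control: 100 is no effect, lower means fewer cells. Every drug was used at one fixed concentration, the lower of two screened (a fifth of the higher). The file gives one value for each pair and line, without errors, so small differences may be noise.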
This is part of the screen, not chosen by result.
A dash means that no value is listed here.

| Combination | A101D | C32 | 501mel | A2058 | MEL-HO | IPC-298 | LOX IMVI | A375 |
|---|---|---|---|---|---|---|---|---|
| fingolimod + pioglitazone | 87.0 | 89.2 | 48.6 | 78.1 | - | - | - | - |
| enzastaurin + PF-04217903 | 102 | 110 | - | 88.7 | 101 | 100 | 160 | 81.4 |
| PF-562271 + Src-I1 | 90.3 | 90.1 | 102 | 100 | - | - | - | - |
| OSU-03012 + Src-I1 | 108 | 111 | 36.2 | 97.8 | 90.5 | 82.9 | 117 | 18.1 |
| OSU-03012 + indole-3-carbinol | 116 | 100 | - | 86.0 | - | - | - | 21.7 |
| pioglitazone + indole-3-carbinol | 95.1 | 84.1 | 79.7 | 94.0 | - | - | - | - |
| docetaxel + CP-690550 | 71.7 | 83.4 | - | 5.6 | 53.2 | 76.7 | 54.6 | 17.9 |
| PF-562271 + pioglitazone | 73.7 | 71.1 | 80.8 | 78.1 | - | - | - | - |
| OSU-03012 + pioglitazone | 114 | 95.8 | 41.0 | 90.0 | 84.9 | 81.6 | 96.4 | 18.6 |
| OSU-03012 + docetaxel | 65.8 | 88.0 | - | 9.0 | 63.0 | 71.4 | 49.2 | 11.0 |
| PF-562271 + L-779450 | 86.4 | 68.0 | 83.0 | 84.8 | - | - | - | - |
| fingolimod + OSU-03012 | - | 91.9 | - | - | - | - | - | - |
| tanespimycin + OSU-03012 | 107 | 91.5 | - | 98.4 | - | - | - | 17.3 |
| fingolimod + CP-690550 | - | 94.7 | - | - | - | - | - | - |
| fingolimod + Src-I1 | 93.8 | 96.7 | 58.5 | 80.2 | - | - | - | - |
| PF-04217903 + tanespimycin | 114 | 81.9 | - | 94.0 | - | - | - | 105 |
| indole-3-carbinol + enzastaurin | 107 | 94.7 | - | 98.3 | 120 | 109 | 87.5 | 89.5 |
| tanespimycin + L-779450 | - | 57.0 | - | 103 | - | - | - | - |
| CP-690550 + OSU-03012 | 105 | 104 | - | 103 | - | - | - | 13.1 |
| PF-562271 + docetaxel | 61.2 | 52.2 | - | 5.8 | 51.9 | 64.3 | 62.0 | 19.4 |
| OSU-03012 + enzastaurin | 85.2 | 92.1 | - | 101 | - | - | - | 20.4 |
| L-779450 + pioglitazone | 107 | 76.4 | 79.1 | 105 | 82.2 | 79.7 | 127 | 78.1 |

Repeated from the top, 3 entries:

| Combination | A101D | C32 | 501mel | A2058 | MEL-HO | IPC-298 | LOX IMVI | A375 |
|---|---|---|---|---|---|---|---|---|
| fingolimod + pioglitazone | 87.0 | 89.2 | 48.6 | 78.1 | - | - | - | - |
| enzastaurin + PF-04217903 | 102 | 110 | - | 88.7 | 101 | 100 | 160 | 81.4 |
| PF-562271 + Src-I1 | 90.3 | 90.1 | 102 | 100 | - | - | - | - |